Measurements as given in PubChem BioAssay AID504847 (National Center for Advancing Translational Sciences (NCATS), 2011).
The campaign covered roughly 400,000 compounds. About 3,700 (0.93%) were called active. The shares of active, inactive and inconclusive entries below differ from those in the screen. Calls follow the shape of the dose curve; as a rule, active = well fitted inhibition curve with a large enough effect; inconclusive = small, poorly fitted or top-dose-only effect, or another doubt; inactive = no such curve, though single readings can be large or run the other way. Where the call is inconclusive, the potency comes from a doubtful curve fit.

Sequences of proteins named here, by UniProt entry; tags and fusion partners are left off. A change or cut given only in a name is not applied to a line headed by its entry.
UniProt P11473: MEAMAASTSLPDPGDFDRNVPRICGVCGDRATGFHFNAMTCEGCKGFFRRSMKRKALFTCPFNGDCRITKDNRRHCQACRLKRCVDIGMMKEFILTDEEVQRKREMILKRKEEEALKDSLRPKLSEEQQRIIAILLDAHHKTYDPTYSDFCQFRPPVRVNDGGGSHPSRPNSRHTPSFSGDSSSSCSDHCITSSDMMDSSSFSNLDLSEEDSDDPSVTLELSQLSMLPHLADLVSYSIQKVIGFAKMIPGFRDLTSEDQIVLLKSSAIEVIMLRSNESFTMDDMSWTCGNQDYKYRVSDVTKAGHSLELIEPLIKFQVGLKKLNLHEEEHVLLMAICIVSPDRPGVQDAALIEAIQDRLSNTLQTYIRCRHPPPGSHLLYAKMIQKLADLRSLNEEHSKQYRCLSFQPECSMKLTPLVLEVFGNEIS

The molecules below were run against Vitamin D3 receptor (Homo sapiens) (UniProt P11473) (assay: Inhibitors of the vitamin D receptor (VDR): qHTS). Conditions: VDR-SRC2-3 peptide fluorescence polarization, 2 h; max response, negative = inhibition: stronger effect = lower value.
Summary of the method: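 Fluorescence polarization assay measuring small-molecule disruption of VDR binding to the coregulator peptide SRC2-3. Compounds were pin-transferred (23 nl) into the reagent mix and incubated 2 h at room temperature before reading.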
% is scaled to controls: 0 for no effect and ±100 for the full control effect; potency is read from the fitted curve at half-maximal effect.

Compound	max response, negative = inhibition	Potency
COc1ccccc1N(CC(=O)N1CCCC1)S(=O)(=O)c1ccc(C)cc1	inactive: 6.75%	
CCOC(=O)C(Cc1ccccc1)C(=O)Nc1ccc(NC(=O)C(Cc2ccccc2)C(=O)OCC)cc1 (centres undefined)	inactive: -6.14%	
O=C(CCC1CCCN(C(=O)c2cncs2)C1)NCc1ccc(F)c(F)c1 (centres undefined)		inconclusive: 79.4 µM [inhibitor, partial curve, poor fit]
Cc1cc(C)c2c(N)c(C(=O)c3ccc(Cl)cc3)sc2n1	inactive: -1.98%	
Cc1cc(C(=O)NNC(=O)Cc2ccc(Cl)c(Cl)c2)c(C)o1		inconclusive: 100 µM [inhibitor, single point]
O=C(NNc1cc(Cl)ccc1Cl)C1CCC1		inconclusive: 79.4 µM [inhibitor, single point]
CCOC(=O)c1cc2c(=O)n3ccccc3nc2n(Cc2ccco2)c1=NC(=O)c1cccnc1		inconclusive: 56.2 µM [inhibitor, partial curve, poor fit]
O=[N+]([O-])c1ccc(Cl)c(S(=O)(=O)/N=C(/Sc2ccc(Br)cc2)c2ccccc2)c1		inconclusive: 11.2 µM [inhibitor, full curve]
CCNc1ncc2nc(-c3ccc(F)cc3)c(=O)n(-c3ccc(OC)cc3)c2n1		inconclusive: 44.7 µM [inhibitor, partial curve]
CC(=O)Nc1ccc(OCCC[n+]2ccccc2)cc1		inconclusive: 100 µM [inhibitor, partial curve, poor fit]
Cc1cnc(C(=O)NC(C)CCc2ccccc2)cn1 (centres undefined)		inconclusive: 100 µM [inhibitor, single point]
CC1(C)CC2CN(C(=O)Cc3ccccc3)C(C)(C2)C1 (centres undefined)	inactive: -10.4%	
CCOc1ccccc1N1CCN(Cc2cn[nH]c2-c2ccc(F)cc2)CC1		inconclusive: 100 µM [inhibitor, single point]
CCOC(=O)C1CCN(Cc2cc(Cl)c3ccccc3c2O)CC1		inconclusive: 79.4 µM [inhibitor, single point]
CCOC(=O)c1c(NC(=O)c2ccc(S(=O)(=O)N3CCC(C)CC3)cc2)sc2c1CCN(C)C2	inactive: 4.77%	
COc1ccccc1N1CCN(C2CCCC(C)C2)CC1 (centres undefined)	inactive: 8.34%	
Cc1cc(C)cc(-n2ccnc2SCC(=O)Nc2nnc(C)s2)c1	inactive: 2.1%	
CN(C)C(=O)c1nc2ccc(Cl)cn2c1CNCc1ccccc1OC(F)(F)F		inconclusive: 79.4 µM [inhibitor, partial curve, poor fit]
CCN1CC(CN(C)Cc2cn(-c3ccc(C)cc3)nc2-c2cccc(C)c2)CC1=O (centres undefined)	inactive: 5.47%	
Cc1c(C(=O)Nc2c3c(nn2C(C)(C)C)CS(=O)(=O)C3)cccc1[N+](=O)[O-]		inconclusive: 39.8 µM [inhibitor, single point]
COc1ccc(N2CCN(S(=O)(=O)c3ccc4oc(=O)c5ncn(C)c5c4c3)CC2)cc1	inactive: 19.9%	
CC(C)(C)c1nc2cc(Cl)c([N+](=O)[O-])cc2o1		active: 79.4 µM
Cc1[nH]n(-c2ccccc2)c(=O)c1C(C[N+](=O)[O-])c1ccc(F)cc1 (centres undefined)		inconclusive: 56.2 µM [inhibitor, partial curve, poor fit]

In the list so far, these contain an NH in an aromatic ring:
Compound	max response, negative = inhibition	Potency
CCOc1ccccc1N1CCN(Cc2cn[nH]c2-c2ccc(F)cc2)CC1		inconclusive: 100 µM [inhibitor, single point]
Cc1[nH]n(-c2ccccc2)c(=O)c1C(C[N+](=O)[O-])c1ccc(F)cc1 (centres undefined)		inconclusive: 56.2 µM [inhibitor, partial curve, poor fit]

Following part.

Compound	max response, negative = inhibition	Potency
S=C(NCCc1c[nH]c2ccccc12)NC1CCCCC1	inactive: 12.9%	
Cc1ccccc1/C=N/NC(=O)c1sccc1C		inconclusive: 44.7 µM [inhibitor, partial curve]
O=C(COC(=O)CSc1ccc([N+](=O)[O-])cc1)NCCCc1ccccc1		active: 70.8 µM
CCCCC1C(=O)CC[C@H]2[C@@H]1CC(=O)[C@@H]2C/C=C\CCCC(=O)O (some centres undefined)		inconclusive: 100 µM [inhibitor, partial curve, poor fit]
CN(C)C1(CNC(=O)C2CCN(S(=O)(=O)c3c(Cl)cccc3Cl)CC2)CCCCC1		inconclusive: 89.1 µM [inhibitor, single point]
CCCCN1C(=O)c2[nH]nc(-c3ccccc3O)c2C1c1cc(Br)c(O)c(OC)c1 (centres undefined)		inconclusive: 39.8 µM [inhibitor, single point]
Cc1ccc(S(=O)(=O)NCCSc2ccccc2)cc1[N+](=O)[O-]		inconclusive: 100 µM [inhibitor, partial curve, poor fit]
CCSc1nc(C(F)(F)F)cc(=O)n1-c1ccccc1		inconclusive: 7.08 µM [inhibitor, partial curve, poor fit]
Cc1ccc2c(c1)C(=O)C(=O)N2Cc1ccc(Br)cc1		active: 22.4 µM
NNc1nc2sc3c(c2c(=O)[nH]1)CCc1ccccc1-3		inconclusive: 79.4 µM [inhibitor, single point]
O=C(O)c1ccc(CSCc2ccccc2Cl)o1		inconclusive: 79.4 µM [inhibitor, partial curve, poor fit]
COCC(=O)N1CCC2(CCN(Cc3cc(C(F)(F)F)cc(C(F)(F)F)c3)CC2)CC1		inconclusive: 89.1 µM [inhibitor, single point]
Cc1occc1C(=O)NNC(=S)NC(=O)COc1ccc(Cl)cc1Cl		inconclusive: 89.1 µM [inhibitor, single point]
COc1cccc(/C=C2/C(=O)NN(c3ccccc3)C2=O)c1		inconclusive: 70.8 µM [inhibitor, partial curve]
CC(=O)c1c(C)nn(CCC(=O)O)c1C		inconclusive: 12.6 µM [inhibitor, partial curve]
O=C(NC(=S)Nc1ccccc1Br)c1ccc2c(c1)OCO2	inactive: -15.3%	
COc1cccc(C=NCCCN=Cc2cccc(OC)c2O)c1O	inactive: 136%	
O=C1C=CC(=O)c2c(O)c(N3CCN(CCO)CC3)c(Cl)c(O)c21		active: 8.91 µM
COc1ccc(NC(=O)c2cc([N+](=O)[O-])ccc2N2CCCC2)cc1		inconclusive: 89.1 µM [inhibitor, single point]
Cc1nn(C)c(Oc2cccc(Cl)c2)c1C#N		inconclusive: 35.5 µM [inhibitor, single point]
O=C1CC(c2ccc3c(c2)OCCO3)Oc2ccc([N+](=O)[O-])cc21 (centres undefined)		active: 20 µM
CCNc1ncc2nc(-c3cccs3)c(=O)n(Cc3ccc(F)cc3)c2n1		inconclusive: 31.6 µM [inhibitor, partial curve, poor fit]
CCN1C(=O)c2cccc3c(S(=O)(=O)NCc4ccco4)ccc1c23		inconclusive: 89.1 µM [inhibitor, single point]

Compound	max response, negative = inhibition	Potency
CCOc1ccccc1C1CC(=O)NC(SCC(=O)Nc2nccs2)=C1C#N (centres undefined)	inactive: -15.6%	
N[C@@H](Cc1ccccc1)C(=O)N1CCC(C(=O)N[C@@H](Cc2c[nH]c3ccccc23)C(=O)O)CC1		inconclusive: 89.1 µM [inhibitor, partial curve, poor fit]
Cc1ccc2nc(/C(C#N)=C/c3ccc(O)c(O)c3)[nH]c2c1		inconclusive: 28.2 µM [inhibitor, single point]
Cc1ccc(/C=N/n2cnc3sc(C)c(C)c3c2=O)o1		inconclusive: 56.2 µM [inhibitor, single point]
O=C1C=CC2(O[C@H](c3ccccc3)[C@@H](c3ccccc3)O2)[C@H](Sc2ccccc2O)C1		active: 10 µM
CC(C)(C)Nc1nc(-c2ccc3c(c2)CCN3C(=O)C2CC2)cs1	inactive: 3.11%	
COCCN=C1Sc2nc3c(C)cccc3cc2CN1Cc1ccco1		active: 89.1 µM
CC(=O)N1CCN(c2ccc(NCc3cccc(C)c3)cc2)CC1		inconclusive: 89.1 µM [inhibitor, partial curve, poor fit]
CC1=C(C(=O)OCc2ccccc2)C(c2ccccc2Br)NC(=O)N1 (centres undefined)		inconclusive: 89.1 µM [inhibitor, partial curve, poor fit]
CCCCCCC[N+](CC)(CC)CCCCc1ccc(Cl)cc1		inconclusive: 100 µM [inhibitor, single point]
CN1CCN(C(=S)NC(=O)c2ccc(Br)cc2)CC1	inactive: 12.9%	
CCc1cccc(CC)c1NC(=O)C(CC)n1nc(C)n2c(cc3cc(C)ccc32)c1=O (centres undefined)	inactive: 3.3%	
COC(=O)c1ccc(COc2ccc(/C=C/C(=O)c3ccc(OC)c(CSCC(=O)O)c3)cc2OC)cc1		inconclusive: 56.2 µM [inhibitor, partial curve, poor fit]
Cc1nc2ccccc2n1CC(=O)N/N=C\c1ccccn1	inactive: -12.9%	
O=C(c1ccc(Br)cc1)N1CCN(Cc2ccccc2)CC1	inactive: 0.716%	
CCOC(=O)c1ccc(N2C(=O)c3n[nH]c(C)c3C2c2ccc(C(C)(C)C)cc2)cc1 (centres undefined)	inactive: -25.4%	
N#CC(C#N)=C1C=CC=CN1/C(=C\c1ccco1)C(=O)c1ccccc1		active: 14.1 µM
O=C(O)CSCC(=O)Nc1ccc(-c2nc3ccccc3s2)cc1		inconclusive: 44.7 µM [inhibitor, partial curve]
N/C(Cc1nc2ccccc2s1)=N\O	inactive: -6.23%	
Cc1cccc(C2NC(=O)c3ccccc3N2)c1 (centres undefined)	inactive: -12.7%	
Oc1c(CN2CCOCC2)ccc2ccccc12		inconclusive: 22.4 µM [inhibitor, full curve]
CN1CCCC2(CCN(C(=O)c3cc(C(F)(F)F)cc(C(F)(F)F)c3)CC2)C1		inconclusive: 89.1 µM [inhibitor, partial curve, poor fit]
Cc1ccc(CNC(=O)CSc2nc(=O)[nH]c3c2CCCC3)cc1	inactive: 0.886%	
